For experiment [1], the target named is mouse CD40 on cells (CD40+ T cells / Th40 cells and B cells of NOD mice; mouse CD4+CD40+ cells in culture) (mouse) (UniProt P27512). Kind of experiment: flow cytometry, FITC-labeled peptide on NOD mouse lymphocytes. (Flow cytometry measures light scatter and fluorescence of single cells or particles in a stream.)
Experiment [2] addresses CD40 on blood cells of type-I diabetic and non-diabetic subjects (Example 4) (Homo sapiens (Human)) (UniProt P25942). The experiment can be described thus: whole blood incubated with biotin-conjugated 15-mer peptide, HRP-avidin, absorbance at 405 nm; sheet title 'ELISA measuring CD40 in blood samples'. Background: ELISA stands for enzyme-linked immunosorbent assay.
Experiment [3] has the same target. The experiment can be described thus: whole blood cells with biotin-conjugated peptide, HRP-avidin, absorbance at 405 nm.
For experiment [4], the target named is dog CD40 on CD4+CD40+ peripheral blood mononuclear cells. Kind of experiment: flow cytometry; PBMC of a known diabetic dog stained with CD3, CD4, CD40 and the peptide; right panel gated on the CD4+CD40+ quadrant (65.2) of the left panel; CD3 (y axis) versus AKKGYY (x axis).

By UniProt entry, the sequences of proteins in these tests, tags left out. Where a name states a change or a piece, a line headed by the entry shows the natural chain unless it says otherwise. Residues count along the entry.
UniProt P27512, residues 20-289: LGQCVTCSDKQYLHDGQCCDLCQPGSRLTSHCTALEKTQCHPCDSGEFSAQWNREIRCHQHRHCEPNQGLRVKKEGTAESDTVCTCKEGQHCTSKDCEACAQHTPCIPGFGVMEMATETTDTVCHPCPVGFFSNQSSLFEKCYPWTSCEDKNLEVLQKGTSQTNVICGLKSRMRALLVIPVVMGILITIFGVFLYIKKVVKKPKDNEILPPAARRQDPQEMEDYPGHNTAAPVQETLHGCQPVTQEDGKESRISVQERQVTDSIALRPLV
UniProt P25942: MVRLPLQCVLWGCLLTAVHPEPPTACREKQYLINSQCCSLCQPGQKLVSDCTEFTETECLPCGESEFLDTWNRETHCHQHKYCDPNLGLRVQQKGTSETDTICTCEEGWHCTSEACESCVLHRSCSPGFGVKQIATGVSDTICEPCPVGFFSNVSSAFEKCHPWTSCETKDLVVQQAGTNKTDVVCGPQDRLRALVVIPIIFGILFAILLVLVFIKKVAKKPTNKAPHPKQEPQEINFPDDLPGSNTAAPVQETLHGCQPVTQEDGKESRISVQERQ

Binding data for three molecules are collected here from patent US20210008162A1 (OP T, published 2021).

Results are given in words; binding and its absence hold for the method and conditions named. Some entries that bind do so weakly or less than the wild type.

On to VLQWAKKGYYTMKSN (FITC label (position not given)) [FITC-labeled 15-mer peptide from CD154], for which the binding entry in experiment [1] is “binds”.
On to VLQWAKKGYYTMKSN (biotin conjugate (position not given)) [biotin-conjugated 15-mer peptide], for which the binding result in experiment [2] and in experiment [3] was “binds” each time.
Consider AKKGYY, for which, in experiment [4], the binding result was “binds”.
